Results are given in words; binding and its absence hold for the method and conditions named. In cells and extracts the contact can be indirect. Some binding calls cover weakened binding; strength is not graded here. Sequences can lack the tags named with a protein.
T1: carbohydrate response element-binding protein (ChREBP), Flag-tagged (mouse) (UniProt Q99MZ3)
T1 sequence: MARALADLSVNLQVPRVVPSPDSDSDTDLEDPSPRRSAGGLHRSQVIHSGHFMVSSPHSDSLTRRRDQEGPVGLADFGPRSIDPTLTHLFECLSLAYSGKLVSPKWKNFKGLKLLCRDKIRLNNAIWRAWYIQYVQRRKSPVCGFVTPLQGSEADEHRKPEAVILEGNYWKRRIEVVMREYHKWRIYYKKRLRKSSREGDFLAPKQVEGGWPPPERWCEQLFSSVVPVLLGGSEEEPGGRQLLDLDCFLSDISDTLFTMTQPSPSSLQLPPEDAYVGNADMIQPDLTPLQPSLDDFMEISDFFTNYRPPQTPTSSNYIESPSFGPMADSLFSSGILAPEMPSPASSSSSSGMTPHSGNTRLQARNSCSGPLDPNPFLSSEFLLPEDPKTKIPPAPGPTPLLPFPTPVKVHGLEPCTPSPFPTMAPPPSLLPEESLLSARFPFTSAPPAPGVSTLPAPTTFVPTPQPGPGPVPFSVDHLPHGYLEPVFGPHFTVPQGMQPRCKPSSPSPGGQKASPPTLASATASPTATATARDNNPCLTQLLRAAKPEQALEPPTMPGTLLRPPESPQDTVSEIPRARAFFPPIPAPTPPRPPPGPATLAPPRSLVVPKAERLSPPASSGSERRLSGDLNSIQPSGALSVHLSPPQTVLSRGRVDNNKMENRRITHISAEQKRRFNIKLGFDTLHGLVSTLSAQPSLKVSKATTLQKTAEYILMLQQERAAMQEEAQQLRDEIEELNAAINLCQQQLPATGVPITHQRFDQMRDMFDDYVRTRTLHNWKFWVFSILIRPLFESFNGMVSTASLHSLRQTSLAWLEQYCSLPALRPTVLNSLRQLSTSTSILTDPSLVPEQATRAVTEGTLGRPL

Protein sequences, listed by entry. Tags and fused reporters are not part of them.
UniProt P61244: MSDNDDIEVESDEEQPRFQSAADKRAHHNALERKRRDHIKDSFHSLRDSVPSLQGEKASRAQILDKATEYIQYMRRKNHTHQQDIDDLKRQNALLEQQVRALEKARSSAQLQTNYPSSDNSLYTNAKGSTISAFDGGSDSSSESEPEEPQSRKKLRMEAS
UniProt Q05195: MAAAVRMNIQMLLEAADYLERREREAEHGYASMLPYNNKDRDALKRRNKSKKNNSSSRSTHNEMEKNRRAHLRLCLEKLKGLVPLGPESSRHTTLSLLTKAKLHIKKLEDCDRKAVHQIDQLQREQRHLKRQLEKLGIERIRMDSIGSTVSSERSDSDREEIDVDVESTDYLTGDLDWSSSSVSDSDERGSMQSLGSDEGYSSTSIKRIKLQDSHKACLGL

B1: MAX-like protein X (MLX), Myc-tagged (protein, UniProt O08609 1-298)
chain: MTEPGASPEDPWVKASFADAHAGEGRAGRARARRGSGRRGAPQLSPESPLLSGARGCREDSSHPACAKVEYAYSDNSLDPGLFVESTHKGSVVSRANSIGSTSASSVPNTDDEDSDYQQEAYKESYKDRRRRAHTQAEQKRRDAIKRGYDDLQTIVPTCQQQDFSIGSQKLSKAIVLQKTIDYIQFLHKEKKKQEEEVSTLRKDVTALKIMKVNYEQIVKAHQDNPHEGEDQVSDQVKFNVFQGIMDSLFQSFNASISVASFQELSACVFSWIEEHCEPQTLREIVIGVLHQLKNQLY

target: T1, carbohydrate response element-binding protein (ChREBP), Flag-tagged (mouse); experiment: co-IP; podocytes cotransfected with Flag-ChREBP, Myc-Mlx, HA-Max and HA-Mxd1 singly or in combinations; lysis in TNMG buffer (50 mM Tris-HCl pH 8.0, 50 mM NaCl, 5 mM MgCl2, 10% glycerol, 0.5% Nonidet P-40); IP with magnetic anti-Flag M2 beads, elution with 100 ug/ml 3x Flag peptide; immunoblots against HA and Myc; HA-MXD1 and HA-MAX tested with and without coexpressed Myc-Mlx

binding, binds:
Myc-associated factor X (MAX), HA-tagged (from UniProt P61244 1-160)
MAX dimerization protein 1 (MXD1), HA-tagged (from UniProt Q05195 1-221)
B1

Source: paper PMC7681008
